For the assay, the target named is IL-17RA (immobilized, SPR binding assay) (human) (UniProt Q96F46). The assay is described as follows: SPR; Biacore 3000; biotinylated protein captured on a streptavidin chip (about 2500 to 3500 RUs); peptide injected at 50 μl/min, 180 s association, at least 600 s dissociation; 10 mM HEPES pH 7.4, 150 mM NaCl, 0.01% P20, 3% DMSO; single site model, global fit; both purified.

Sequences of proteins named here, by UniProt entry; tags and fusion partners are left off. A change or cut given only in a name is not applied to a line headed by its entry.
UniProt Q96F46: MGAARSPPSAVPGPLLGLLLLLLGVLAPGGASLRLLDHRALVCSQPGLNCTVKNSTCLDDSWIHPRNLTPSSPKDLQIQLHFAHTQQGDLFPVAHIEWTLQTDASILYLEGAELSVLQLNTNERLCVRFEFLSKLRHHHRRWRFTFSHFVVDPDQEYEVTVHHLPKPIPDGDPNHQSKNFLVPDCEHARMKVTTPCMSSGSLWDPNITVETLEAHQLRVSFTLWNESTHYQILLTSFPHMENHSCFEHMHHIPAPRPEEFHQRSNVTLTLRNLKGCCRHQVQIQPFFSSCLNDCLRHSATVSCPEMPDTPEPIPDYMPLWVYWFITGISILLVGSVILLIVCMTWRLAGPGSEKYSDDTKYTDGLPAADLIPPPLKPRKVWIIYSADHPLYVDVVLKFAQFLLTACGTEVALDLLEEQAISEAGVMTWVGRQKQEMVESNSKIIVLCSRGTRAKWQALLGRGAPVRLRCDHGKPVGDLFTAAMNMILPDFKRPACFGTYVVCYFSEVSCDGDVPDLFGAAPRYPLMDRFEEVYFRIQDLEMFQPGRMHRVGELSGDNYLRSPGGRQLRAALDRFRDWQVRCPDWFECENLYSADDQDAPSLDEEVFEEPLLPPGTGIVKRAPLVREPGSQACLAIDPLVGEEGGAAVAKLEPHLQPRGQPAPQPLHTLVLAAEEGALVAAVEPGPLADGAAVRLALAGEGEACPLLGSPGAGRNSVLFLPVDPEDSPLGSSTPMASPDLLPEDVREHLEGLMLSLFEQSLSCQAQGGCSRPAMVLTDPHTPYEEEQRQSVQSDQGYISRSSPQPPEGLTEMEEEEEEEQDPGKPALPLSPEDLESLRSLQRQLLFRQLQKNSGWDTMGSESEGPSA

No constants are given. Whether binding was seen depends on the method and setting. Sequences can lack the tags named with a protein.

B1: high affinity IL-17A peptide antagonist (HAP) (peptide)
peptide: IHVTIPADLWDWINK
modifications: N-terminal acetyl
On to B1, for which the binding result is recorded as “no binding (tested: 100 nM)”.

Source of the values: PMC4869123 (Scientific Reports, 2016).
